Laboratory results: article PMC9950448
No constants are given. Whether binding was seen depends on the method and setting. In cells and extracts the contact can be indirect. Here binding means that the protein was enriched with, or labelled near, the bait; the list need not be complete. Where a sequence is shown, tags or fusion partners need not be part of it.

The chains behind the UniProt entries cited, without tags or fusion partners.
UniProt Q99873: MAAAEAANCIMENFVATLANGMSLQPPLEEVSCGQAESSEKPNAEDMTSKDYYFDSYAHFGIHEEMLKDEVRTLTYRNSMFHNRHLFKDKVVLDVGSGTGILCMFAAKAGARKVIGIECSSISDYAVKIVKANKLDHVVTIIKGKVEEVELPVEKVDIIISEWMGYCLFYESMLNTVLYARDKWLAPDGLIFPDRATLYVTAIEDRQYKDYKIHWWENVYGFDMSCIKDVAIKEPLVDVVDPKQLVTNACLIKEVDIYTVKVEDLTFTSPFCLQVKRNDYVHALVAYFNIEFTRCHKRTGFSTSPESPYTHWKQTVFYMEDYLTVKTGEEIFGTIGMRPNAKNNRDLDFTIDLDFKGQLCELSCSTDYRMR

Biological target: T1, FLAG-PHGDH WT (phosphoglycerate dehydrogenase) (human) (UniProt O43175)
T1 sequence: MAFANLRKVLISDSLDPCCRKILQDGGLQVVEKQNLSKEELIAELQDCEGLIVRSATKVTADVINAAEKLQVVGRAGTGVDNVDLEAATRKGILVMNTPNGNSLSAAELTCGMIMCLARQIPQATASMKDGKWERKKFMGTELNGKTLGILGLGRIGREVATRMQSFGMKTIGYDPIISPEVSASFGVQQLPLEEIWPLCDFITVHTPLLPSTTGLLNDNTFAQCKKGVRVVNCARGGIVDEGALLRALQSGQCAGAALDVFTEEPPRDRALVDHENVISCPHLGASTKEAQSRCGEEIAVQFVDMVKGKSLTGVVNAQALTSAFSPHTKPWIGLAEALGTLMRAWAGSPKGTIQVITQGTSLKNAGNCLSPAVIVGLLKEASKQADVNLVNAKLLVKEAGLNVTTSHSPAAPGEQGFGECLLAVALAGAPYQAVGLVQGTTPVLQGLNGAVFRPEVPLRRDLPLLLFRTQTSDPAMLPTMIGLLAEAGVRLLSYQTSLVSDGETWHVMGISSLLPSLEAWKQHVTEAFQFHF
Test: affinity purification with mass spectrometry; HEK293T cells stably expressing FLAG-PHGDH lysed, IP with FLAG beads, SDS-PAGE bands digested with trypsin, LC-MS/MS

binding: binds
Substance: endogenous PRMT1 (protein arginine methyltransferase 1) (from UniProt Q99873 1-371) (enzyme)
